These results are taken from PubChem BioAssay AID445 (National Center for Advancing Translational Sciences (NCATS), 2006).

The list shows a part of the results. Further columns of the screen follow, without active or inactive calls. The list favours compounds with an active or inconclusive main result. Words in brackets tell the shape of the fitted curve; partial curves, single points and poor fits give uncertain potencies.

This assay can be described thus: IkB Signaling. To be noted: ABC-DLBCL IkBa-CBG/CBR dual luciferase ratio (green luciferase fused to IkBa over red control in OCI-Ly3 lymphoma cells), 4 h; measured here: control luc red channel unless noted. Summed up: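 Luminescence ratio of IκBα-fused green versus native red beetle luciferase in OCI-Ly3 cells, 4 h post-doxycycline with compound; red signal alone, scaled from basal (0%) to zero light (-100%), flagged nonspecific or cytotoxic effects.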
In the case of `CC(C)CCNc1nc2c(-c3ccccc3)nnn2c2ccccc12`, the AC50 is 25.1 µM [falling, single point].

As for `CCOc1ccc(CNC(=O)c2ccc(CSc3nc4ccncc4n3Cc3ccc(F)cc3)cc2)cc1`, the AC50 is 31.6 µM [falling, single point].

`CCCOc1ccc2c3c(c(=O)oc2c1OCCC)CCC3`: the half-maximal activity concentration (AC50) is 20 µM [falling, partial curve].

Consider `COc1cccc(NC(=O)c2oc3ccccc3c2NC(=O)c2ccccc2C)c1`, for which the AC50 was 15.8 µM [falling, single point].

With `COc1cccc(C(=O)Nc2ccc3nc(N4CCOCC4)cc(C)c3c2)c1`, the AC50 was 15.8 µM [falling, partial curve].

In the case of `Cc1nn(-c2ccccc2)c2nc(C3CC3)cc(C(=O)Nc3cccc(F)c3)c12`, the half-maximal activity concentration (AC50) is 12.6 µM [falling, partial curve].

Take `COc1ccc(C(=O)Nc2ccc3nc(SCC(=O)N4CCCc5ccccc54)sc3c2)cc1`: the concentration at half-maximal activity (AC50) was 2 µM [falling, partial curve].

Regarding `CCN(CC)C(=O)c1sc2c(c1C)c(=O)n(-c1ccc(Cl)c(Cl)c1)c(=O)n2Cc1cc(=O)n2c(C)cccc2n1`, the AC50 was 0.0126 µM [rising, full curve, poor fit].

Regarding `COc1ccc(CC(=O)Nc2oc(-c3ccccc3)c(-c3ccccc3)c2C#N)cc1OC`, the half-maximal activity concentration (AC50) is 3.16 µM [falling, full curve].

`O=C(NCCc1ccccn1)c1n[nH]c(=O)c2ccccc12`: the concentration at half-maximal activity (AC50) was 39.8 µM [falling, single point].

As for `Cc1ccc(-c2nc(C)c(CCNS(=O)(=O)c3ccccc3F)s2)cc1`, the AC50 was 0.251 µM [falling, full curve, poor fit].

`COc1cc(NS(C)(=O)=O)ccc1Nc1c2ccccc2nc2ccccc12`: the half-maximal activity concentration (AC50) was 20 µM [falling, partial curve] [measured here: IkB-luc green channel].

In the case of `CN1C(=O)C(C)(C)c2cc(S(=O)(=O)NCc3ccc(C(=O)Nc4ccc(Cl)cc4)cc3)ccc21`, the half-maximal activity concentration (AC50) was 1.58 µM [falling, full curve].

As for `O=C(COc1ccc2c(c1)CCC2)N1CCc2ccccc21`, the half-maximal activity concentration (AC50) was 31.6 µM [falling, partial curve].

Turning to `CCc1ccc(-n2nc(C)c3c(C(=O)Nc4cc(OC)cc(OC)c4)cc(C)nc32)cc1`, the concentration at half-maximal activity (AC50) is 3.98 µM [falling, partial curve].

On to `CCC(C(=O)NC1CCCC1)N(Cc1ccc2c(c1)OCO2)C(=O)c1snc(C(N)=O)c1N` (stereo not drawn), for which the AC50 was 15.8 µM [falling, partial curve] [measured here: IkB-luc green channel].

`CC(C)(C)OC(=O)N1CCC[C@H]1c1nnc(SC/C=C/c2ccccc2)o1`: the AC50 is 10 µM [falling, partial curve].

Consider `COc1cc(C2CC(=O)c3c([nH]c(C(=O)OC4CCCCC4)c3C)C2)cc(OC)c1OC` (stereo not drawn), for which the AC50 was 3.98 µM [falling, partial curve].

Turning to `CCOC(=O)CSC1=C(C#N)C(c2ccccc2OCC)C(C#N)C(=O)N1` (stereo not drawn), the AC50 is 39.8 µM [rising, single point] [measured here: IkB-luc green channel].

Consider `Cc1ccc(CNC(=O)c2c3c(nc4ccccc24)C(=O)N(C2CCCCC2)C3)cc1`, for which the half-maximal activity concentration (AC50) was 20 µM [falling, partial curve].

As to `Cc1csc2nc(COC(=O)c3ccccc3NC(=O)c3ccc(F)cc3)cc(=O)n12`, the AC50 was 39.8 µM [falling, single point].

For the compound `COc1cccc(NC(=O)CSc2nc3ccccc3nc2N2CCOCC2)c1`, the half-maximal activity concentration (AC50) was 20 µM [falling, partial curve].

As for `CCCN(C(=O)CCc1nc(-c2ccccc2F)no1)c1ccc(CC)cc1`, the AC50 is 25.1 µM [falling, partial curve].

As for `COc1ccc(NC(=O)c2cc3c(=O)[nH]c4ccccc4c3n2C)cc1Cl`, the AC50 is 25.1 µM [rising, partial curve].

With `COc1ccc(CC(=O)NCc2nc3cccnc3n2Cc2ccc(F)cc2)cc1OC`, the concentration at half-maximal activity (AC50) is 5.01 µM [falling, partial curve].

Regarding `CCN(C(=O)c1oc2ccc(S(=O)(=O)N3CCCCCC3)cc2c1C)c1ccccc1`, the AC50 is 15.8 µM [falling, partial curve].

With `CCOC(=O)c1cccc(NC(=O)CN2C(=O)CC(C)(C)Sc3ccccc32)c1`, the AC50 is 31.6 µM [falling, partial curve].

In the case of `CC1(C)CC(n2c(NCCO)nc3c(c2=O)C2(CCCC2)Cc2ccccc2-3)CCO1` (stereo not drawn), the AC50 is 39.8 µM [falling, single point].

Take `CCN1C(=O)c2cccc3c(S(=O)(=O)Nc4nc(C)cs4)ccc1c23`: the half-maximal activity concentration (AC50) is 6.31 µM [rising, partial curve] [measured here: IkB-luc green channel].

Take `Cc1ccc(-n2ncc(C(=O)NCCN3CCc4ccccc4C3)c2C2CCN(C(=O)OC(C)(C)C)CC2)cc1`: the AC50 was 25.1 µM [falling, partial curve].

For the compound `Cc1ccc(C(=O)Nc2c(C(=O)NCc3ccc(Cl)cc3)sc3nc(C)cc(C)c23)cc1`, the concentration at half-maximal activity (AC50) was 15.8 µM [falling, partial curve].

As for `Cc1ccccc1OCCn1c(CCNC(=O)C(C)(C)C)nc2ccccc21`, the AC50 was 5.01 µM [falling, full curve].

For `COc1ccc(C(C)C)cc1S(=O)(=O)NCCc1c(C)[nH]c2ccc(C)cc12`, the AC50 is 25.1 µM [falling, partial curve].

As for `CCc1ccc(CNC(=O)c2ccc(-c3nc(CS(=O)(=O)c4ccccc4)c(C)o3)cc2)cc1`, the concentration at half-maximal activity (AC50) is 1.26 µM [falling, full curve, poor fit].

In the case of `COc1ccccc1/C=C/c1nc(C#N)c(N(C)C)o1`, the AC50 is 0.0501 µM [rising, full curve].

On to `COc1cc(C(=O)Nc2ccc3nc(SCc4ccccc4)sc3c2)cc(OC)c1OC`, for which the half-maximal activity concentration (AC50) is 10 µM [falling, partial curve].

For the compound `CCN(C(=O)CSc1nc2ccccc2n1Cc1cc(C)ccc1C)c1ccccc1`, the AC50 is 10 µM [falling, partial curve].

For the compound `Cc1ccc(C(=O)NCC(c2cccs2)S(=O)(=O)c2cccs2)cc1` (stereo not drawn), the AC50 was 0.631 µM [rising, full curve].

Broadly, the AC50 is the concentration at which the activity in the assay is half-maximal.
